Key:
[1] = Photochemical CO expulsion to pentacene in degassed THF; format: physicochemical
[2] = OTFT device with film made from spin-coated precursor (FET characteristics)
[3] = channel width 20 cm, length 10 μm
[4] = channel width 1 mm, channel length 5 μm

Compound | yield of pentacene ([1]; 310 nm irradiation, degassed THF, similar photolysis protocol) [%] | field-effect mobility μ [2, 3] | on/off current ratio [2, 3] | yield of pentacene production (pentacene produced per photon absorbed) ([1]; 385 nm laser 10 mW/cm^2, 40 sec, ~1.2×10^−4 M in THF) [%] | field-effect mobility μ [2, 4] | on/off current ratio [2, 4]
O=C1[C@H]2c3cc4ccccc4cc3[C@H]1c1cc3ccccc3cc12 [Compound 1, reference compound] | 12.6±0.6 | 8.8×10^−3 cm^2 V^−1 s^−1 | ~1.2×10^5 | – | – | –
O=C1[C@@H]2c3ccccc3[C@@H]1c1cc3cc4ccccc4cc3cc12 [Compound 2] | – | 1.2×10^−3 cm^2 V^−1 s^−1 | – | 16.2±1.0 | – | –
C1=C[C@@H]2c3cc4cc5cc6c(cc5cc4cc3[C@@H]1[C@]21OCCO1)[C@H]1C=C[C@@H]6[C@]12OCCO2 [Compound 16] | – | – | – | – | 7.89×10^−6 cm^2/Vs | 1.7×10^3

From US9034439B2, “Synthesis and applications of soluble pentacene precursors and related compounds” (Academia Sinica, priority 2008, dated 2015)
